# Experimental data reported in PubChem BioAssay AID504648 (National Center for Advancing Translational Sciences (NCATS), 2011).
# In all, about 390,000 compounds went through this assay and about 610 (0.16%) were called active. Inconclusive means that the source gave no clear call. Such entries were picked first, then a sample of the others. Calls come from the whole dose curve; as a rule, active = well fitted inhibition curve with a large enough effect; inconclusive = small, poorly fitted or top-dose-only effect, or effect the other way, or another doubt; inactive = no such curve, though single readings can be large or run the other way. Potencies beside an inconclusive call are fits to weak or partial responses and may not hold up.
# Test: Nrf2 qHTS screen for inhibitors: counterscreen for cytotoxicity
# Conditions: A549 ARE-Fluc cells, CellTiter-Fluor viability, 18-24 h; series mostly up to 46 µM
# Method in brief: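 A549 ARE_Fluc cells in 5% FBS OPTI-MEM were exposed to compounds in concentration-response for 18-24 h at 37 deg C. Viability was read by CellTiter-Fluor fluorescence (Ex 405/Em 525) after 30 min, before the luciferase read.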
# Potency is the fitted concentration of half-maximal effect.
row,SMILES,Potency
1,COc1ccc(-c2csc(NC(=O)COC(=O)C3=COCCO3)n2)cc1,"inconclusive: 29.1 µM [activator, single point]"
2,CCC(=O)Nc1ccc(C(=O)OCc2ccccc2)cc1,inactive
3,COc1cccc(C(=O)Nc2ccc(N3CCN(C(=O)c4ccco4)CC3)cc2)c1,"inconclusive: 29.1 µM [falling, partial curve, poor fit]"
4,COc1ccc(C(CNC(=O)c2cccc(S(=O)(=O)Nc3ccccc3Cl)c2)N2CCOCC2)cc1 (centres undefined),"inconclusive: 20.6 µM [falling, single point]"
5,Cc1c(C)c2cc(Cl)c(O)c(CN3CCN(C)CC3)c2oc1=O,"inconclusive: 16.4 µM [activator, partial curve, poor fit]"
6,O=C(C1CCN(S(=O)(=O)N2CCOCC2)CC1)N1CCN(c2ccccc2F)CC1,inactive
7,CC1CCCN(c2sc(S(C)(=O)=O)nc2S(=O)(=O)c2ccc(Cl)cc2)C1 (centres undefined),inactive
8,C#CC[N+]1(CC#Cc2ccccc2)CCCCC1,inactive
9,Cc1cc(C)nc(S/C=C/C(=O)c2ccccc2)n1,"inconclusive: 20.6 µM [falling, single point]"
10,Nc1c(Br)cc2c([nH]c(=O)c3ccccc32)c1Br,"inconclusive: 14.6 µM [falling, partial curve, poor fit]"
11,N/C(Cc1cccc2ccccc12)=N\OC(=O)COc1ccccc1,"inconclusive: 5.8 µM [activator, partial curve, poor fit]"
12,Cc1cc(Nc2ccc([N+](=O)[O-])cc2)nc2ccccc12,"inconclusive: 29.1 µM [falling, partial curve, poor fit]"
13,Cc1ccc(NC(=S)N(CCCN2CCCC2)Cc2cccn2Cc2ccc(Cl)cc2)cc1,"inconclusive: 29.1 µM [falling, single point]"
14,Cn1c(=O)c(=O)n(C)c2cc(N3CCCC3)c(NS(=O)(=O)c3ccc(Cl)cc3)cc21,inactive
15,COc1ccc(NC(=O)CSc2nc3ccccc3c3nc4ccccc4n23)cc1,"inconclusive: 4.11 µM [falling, partial curve, poor fit]"
16,CC(C)OP(=O)(OC(C)C)/C(C=O)=N\Nc1ccc([N+](=O)[O-])cc1,inactive
17,CCN1CCN(Cc2ccc(NC(=O)c3ccc(C)c(NC(=O)c4cncc(-c5cccs5)c4)c3)cc2C(F)(F)F)CC1,"inconclusive: 9.2 µM [falling, partial curve]"
18,COc1ccc(OCC(O)CNC(=O)c2ccc(Br)cc2)cc1 (centres undefined),inactive
19,C=C1C(=O)C2=CC1CCC(=O)C1(C)CCC(OC(C)=O)C(C)(C)C1CC2O (centres undefined),"inconclusive: 23.1 µM [falling, single point]"

# Copied from the list.
# For Potency, Cc1cc(C)nc(S/C=C/C(=O)c2ccccc2)n1 is entered as inconclusive: 20.6 µM [falling, single point]
# For Potency, C=C1C(=O)C2=CC1CCC(=O)C1(C)CCC(OC(C)=O)C(C)(C)C1CC2O (centres undefined) is entered as inconclusive: 23.1 µM [falling, single point]
